This passage reports binding results from publication PMC5358342.

By UniProt entry, the sequences of proteins in these tests, tags left out.
UniProt Q03135: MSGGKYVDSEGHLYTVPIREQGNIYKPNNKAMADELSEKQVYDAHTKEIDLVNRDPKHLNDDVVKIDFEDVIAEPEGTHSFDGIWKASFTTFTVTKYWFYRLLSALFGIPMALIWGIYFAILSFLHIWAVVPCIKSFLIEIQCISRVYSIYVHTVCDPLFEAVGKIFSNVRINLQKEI

For test [1], the target named is T1, RSV M2-1 protein (respiratory syncytial virus (RSV)) (UniProt P04545).
T1 sequence: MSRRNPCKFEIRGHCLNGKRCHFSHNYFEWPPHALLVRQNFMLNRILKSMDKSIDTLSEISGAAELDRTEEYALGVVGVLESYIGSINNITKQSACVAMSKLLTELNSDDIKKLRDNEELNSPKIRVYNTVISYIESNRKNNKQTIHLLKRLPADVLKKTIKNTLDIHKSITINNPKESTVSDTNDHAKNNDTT
Nature of the test: co-IP; non-crosslinked whole-cell lysates of mock-infected or RSV-infected HeLa cells (22 hpi), milder detergent and salt concentrations; IP with anti-G, anti-M and anti-M2-1 antibodies; blots for G, M and caveolin-1.

The target in test [2] is T2, RSV matrix (M) protein (respiratory syncytial virus (RSV)) (UniProt P0DOE7).
T2 sequence: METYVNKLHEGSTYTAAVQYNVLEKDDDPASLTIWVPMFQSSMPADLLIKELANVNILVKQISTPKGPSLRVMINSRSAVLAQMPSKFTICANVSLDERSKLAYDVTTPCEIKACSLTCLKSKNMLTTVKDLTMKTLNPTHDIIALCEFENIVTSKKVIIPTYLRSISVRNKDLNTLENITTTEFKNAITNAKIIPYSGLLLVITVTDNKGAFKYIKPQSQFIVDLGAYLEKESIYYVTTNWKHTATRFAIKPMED
The test is described as above.

Test [3] has as its target T3, cavin-1–EGFP (UniProt Q6NZI2).
T3 sequence: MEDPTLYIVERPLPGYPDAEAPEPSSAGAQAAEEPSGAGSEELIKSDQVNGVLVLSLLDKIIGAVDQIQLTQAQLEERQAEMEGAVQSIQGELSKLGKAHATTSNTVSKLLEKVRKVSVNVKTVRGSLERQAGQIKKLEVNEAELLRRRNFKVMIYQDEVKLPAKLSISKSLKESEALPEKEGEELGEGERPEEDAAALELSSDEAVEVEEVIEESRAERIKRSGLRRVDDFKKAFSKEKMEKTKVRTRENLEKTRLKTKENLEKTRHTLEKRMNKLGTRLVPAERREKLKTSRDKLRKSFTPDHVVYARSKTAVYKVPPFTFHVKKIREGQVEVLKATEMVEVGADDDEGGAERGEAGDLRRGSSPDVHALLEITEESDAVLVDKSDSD
Nature of the test: co-IP; GFP-trap (RFP-trap as control) on pooled 80S peak fractions of the sucrose gradient from DSP-crosslinked mock-infected or RSV-infected HeLa cells expressing cavin-1–EGFP; washes 50 mM Tris-HCl pH 8, 300 mM NaCl, 0.2% Triton X-100; silver stain and immunoblot.

The target of test [4] is T3, cavin-1–EGFP. Nature of the test: co-sedimentation; mock-infected or RSV-infected HeLa cells stably expressing cavin-1–EGFP crosslinked live at 22 hpi with 2 mM DSP; lysed in 50 mM Tris-HCl pH 8, 300 mM NaCl, 5 mM EDTA, 1% Triton X-100, 1% octyl-glucoside; linear 10–40% sucrose gradient, SW41Ti 37,000 rpm 6 h 4°C; fractions immunoblotted. (In general: Immunoblotting shows a protein as a band on a membrane.)

The target in test [5] is T4, RSV M2-1 protein (respiratory syncytial virus (RSV)), P04545.
T4 chain: T1 sequence
Nature of the test: co-IP; non-crosslinked whole-cell lysates of mock-infected or RSV-infected HeLa cells (22 hpi), milder detergent and salt concentrations; IP with anti-G, anti-M and anti-M2-1 antibodies; blots for G, M and caveolin-1. The note with it: remark: other sources report otherwise.

Results are given in words; binding and its absence hold for the method and conditions named. In cells and extracts the contact can be indirect. Some results given as binding are weak or reduced against the parent protein; the word gives no strength. For part of these data: Where a sequence is shown, tags or fusion partners need not be part of it.

With caveolin-1 (from UniProt Q03135 1-178), the binding result (in test [1]; in test [2]; with cavin-1–EGFP [3]; with cavin-1–EGFP [4]) was “binds” in each case.

B1: cavin-3 (protein, UniProt Q969G5 1-261)
chain: MRESALERGPVPEAPAGGPVHAVTVVTLLEKLASMLETLRERQGGLARRQGGLAGSVRRIQSGLGALSRSHDTTSNTLAQLLAKAERVSSHANAAQERAVRRAAQVQRLEANHGLLVARGKLHVLLFKEEGEVPASAFQKAPEPLGPADQSELGPEQLEAEVGESSDEEPVESRAQRLRRTGLQKVQSLRRALSGRKGPAAPPPTPVKPPRLGPGRSAEAQPEAQPALEPTLEPEPPQDTEEDPGRPGAAEEALLQMESVA
With B1, the binding entry with cavin-1–EGFP [3] is on record as “binds”.

B2: RSV matrix (M) protein, P0DOE7 1-256 (protein)
chain: T2 sequence
On to B2, for which the binding result in test [5] is reported as “binds”.
